Experimental data as given in PMC6271933, “Evaluation of the Toxicity of 5-Aryl-2-Aminoimidazole-Based Biofilm Inhibitors against Eukaryotic Cell Lines, Bone Cells and the Nematode Caenorhabditis elegans” (Molecules, 2014).

Tests used:
Test in all cases: Cytostatic activity against tumor cell lines (cell number by Coulter counter)
Assay type in all cases: cell-based
[1] = system: human cervix carcinoma (HeLa); details: for TI P. aeruginosa HeLa: ratio IC50 (HeLa) / BIC50 (P. aeruginosa); for TI S. Typhimurium HeLa: ratio IC50 (HeLa) / BIC50 (S. Typhimurium)
Procedure: (§1) The IC50 was defined as the compound concentration required to inhibit cell proliferation by 50%. The therapeutic index (TI) was calculated as the ratio of the compound concentration producing toxicity (IC50) to the concentration needed to exert the desired ‘therapeutic’ effect on biofilms of Salmonella and Pseudomonas, indicated by the BIC50 (dose needed to prevent biofilm formation by 50%). The higher the therapeutic index, the broader the safety window of the compound.
(§2) Murine leukemia (L1210), human T-lymphocyte (CEM) and human cervix carcinoma (HeLa) were suspended at 300,000–500,000 cells/mL of culture medium, and 100 µL of a cell suspension was added to 100 µL of an appropriate dilution of the test compounds in 200 µL-wells of 96-well microtiter plates. After incubation at 37 °C for two (L1210), three (CEM) or four (HeLa) days, the cell number was determined using a Coulter counter. The IC50 was defined as the compound concentration required to inhibit cell proliferation by 50%.

human T-lymphocyte (CEM) = details: for TI P. aeruginosa CEM: ratio IC50 (CEM) / BIC50 (P. aeruginosa); for TI S. Typhimurium CEM: ratio IC50 (CEM) / BIC50 (S. Typhimurium)
Procedure: as §1, §2

murine leukemia (L1210) = details: for TI P. aeruginosa L1210: ratio IC50 (L1210) / BIC50 (P. aeruginosa); for TI S. Typhimurium L1210: ratio IC50 (L1210) / BIC50 (S. Typhimurium)
Procedure: as §1, §2

`c1ccc(-c2cn(CCCCNc3ncc(-c4ccccc4)[nH]3)nn2)cc1` [compound 37] was tested, and the “TI P. aeruginosa HeLa” value [1] was 5.6, the “TI S. Typhimurium HeLa” value [1] was 2.7 and the “TI P. aeruginosa CEM” value (human T-lymphocyte (CEM)) was 24.2. For the same compound, the “TI S. Typhimurium CEM” value (human T-lymphocyte (CEM)) was 11.5, the “TI P. aeruginosa L1210” value (murine leukemia (L1210)) was 11.5 and the “TI S. Typhimurium L1210” value (murine leukemia (L1210)) was 5.4.

`Brc1ccc(-c2cnc(NCCCn3cc(C4CCCCC4)nn3)[nH]2)cc1` [compound 39] was tested, and the “TI P. aeruginosa HeLa” value [1] was 1.8, the “TI S. Typhimurium HeLa” value [1] was 2.7 and the “TI P. aeruginosa CEM” value (human T-lymphocyte (CEM)) was 31.7. For the same compound, the “TI S. Typhimurium CEM” value (human T-lymphocyte (CEM)) was 47.1, the “TI P. aeruginosa L1210” value (murine leukemia (L1210)) was 1.7 and the “TI S. Typhimurium L1210” value (murine leukemia (L1210)) was 2.5.

In the case of `Nc1ncc(-c2ccc(Br)cc2)[nH]1` [compound 5, 5-(p-bromophenyl)-2-aminoimidazole], the “TI P. aeruginosa HeLa” value [1] was 6.8, the “TI S. Typhimurium HeLa” value [1] was 0.5 and the “TI P. aeruginosa CEM” value (human T-lymphocyte (CEM)) was 4.3. The “TI S. Typhimurium CEM” value (human T-lymphocyte (CEM)) was 0.3, the “TI P. aeruginosa L1210” value (murine leukemia (L1210)) was 3.2 and the “TI S. Typhimurium L1210” value (murine leukemia (L1210)) was 0.2.

For `c1ccc(-c2cn(CCCNc3ncc(-c4ccccc4)[nH]3)nn2)cc1` [compound 36], the “TI P. aeruginosa HeLa” value [1] was less than 0.2, the “TI S. Typhimurium HeLa” value [1] was 2.0 and the “TI P. aeruginosa CEM” value (human T-lymphocyte (CEM)) was less than 1.1. The “TI S. Typhimurium CEM” value (human T-lymphocyte (CEM)) was 12.4, the “TI P. aeruginosa L1210” value (murine leukemia (L1210)) was less than 0.6 and the “TI S. Typhimurium L1210” value (murine leukemia (L1210)) was 6.1.

In the case of `CC(C)CNc1ncc(-c2ccc(Cl)cc2)[nH]1` [compound 22], the “TI P. aeruginosa HeLa” value [1] was 190.6, the “TI S. Typhimurium HeLa” value [1] was 85.8 and the “TI P. aeruginosa CEM” value (human T-lymphocyte (CEM)) was 330.3. The “TI S. Typhimurium CEM” value (human T-lymphocyte (CEM)) was 148.7, the “TI P. aeruginosa L1210” value (murine leukemia (L1210)) was 373.7 and the “TI S. Typhimurium L1210” value (murine leukemia (L1210)) was 168.2.

For `Brc1ccc(-c2cnc(NCCCn3cc(C4CC4)nn3)[nH]2)cc1` [compound 40], the “TI P. aeruginosa HeLa” value [1] was 0.9, the “TI S. Typhimurium HeLa” value [1] was 33.6 and the “TI P. aeruginosa CEM” value (human T-lymphocyte (CEM)) was 0.5. The “TI S. Typhimurium CEM” value (human T-lymphocyte (CEM)) was 16.8, the “TI P. aeruginosa L1210” value (murine leukemia (L1210)) was 0.6 and the “TI S. Typhimurium L1210” value (murine leukemia (L1210)) was 21.9.

For `Nc1ncc(-c2ccc([N+](=O)[O-])cc2)[nH]1` [compound 4], the “TI P. aeruginosa HeLa” value [1] was 3.1, the “TI S. Typhimurium HeLa” value [1] was 6.1 and the “TI P. aeruginosa CEM” value (human T-lymphocyte (CEM)) was 1.8. The “TI S. Typhimurium CEM” value (human T-lymphocyte (CEM)) was 3.6, the “TI P. aeruginosa L1210” value (murine leukemia (L1210)) was 2.4 and the “TI S. Typhimurium L1210” value (murine leukemia (L1210)) was 4.7.

In the case of `Nc1ncc(-c2ccccc2)[nH]1` [compound 1], the “TI P. aeruginosa HeLa” value [1] was 2.0, the “TI S. Typhimurium HeLa” value [1] was 1.1 and the “TI P. aeruginosa CEM” value (human T-lymphocyte (CEM)) was 1.3. For the same compound, the “TI S. Typhimurium CEM” value (human T-lymphocyte (CEM)) was 0.7, the “TI P. aeruginosa L1210” value (murine leukemia (L1210)) was 0.9 and the “TI S. Typhimurium L1210” value (murine leukemia (L1210)) was 0.5.

For `Nc1ncc(-c2ccc(Cl)cc2)[nH]1` [compound 2], the “TI P. aeruginosa HeLa” value [1] was 20.7, the “TI S. Typhimurium HeLa” value [1] was 4.5 and the “TI P. aeruginosa CEM” value (human T-lymphocyte (CEM)) was 14.2. The “TI S. Typhimurium CEM” value (human T-lymphocyte (CEM)) was 3.1, the “TI P. aeruginosa L1210” value (murine leukemia (L1210)) was 22.1 and the “TI S. Typhimurium L1210” value (murine leukemia (L1210)) was 4.8.

With `Clc1ccc(-c2cnc(NC3CCCC3)[nH]2)cc1` [compound 24] the “TI P. aeruginosa HeLa” value [1] was 2.1, the “TI S. Typhimurium HeLa” value [1] was 6.5 and the “TI P. aeruginosa CEM” value (human T-lymphocyte (CEM)) was 43.8. The “TI S. Typhimurium CEM” value (human T-lymphocyte (CEM)) was 134.3, the “TI P. aeruginosa L1210” value (murine leukemia (L1210)) was 2.6 and the “TI S. Typhimurium L1210” value (murine leukemia (L1210)) was 8.1.

In the case of `CCCCNc1ncc(-c2ccc(Br)cc2)[nH]1` [compound 25], the “TI P. aeruginosa HeLa” value [1] was 5.2, the “TI S. Typhimurium HeLa” value [1] was 7.1 and the “TI P. aeruginosa CEM” value (human T-lymphocyte (CEM)) was 50.3. The “TI S. Typhimurium CEM” value (human T-lymphocyte (CEM)) was 69.4, the “TI P. aeruginosa L1210” value (murine leukemia (L1210)) was 12.8 and the “TI S. Typhimurium L1210” value (murine leukemia (L1210)) was 17.7.

`c1ccc(-c2cnc(NC3CCCC3)[nH]2)cc1` [compound 20] was tested, and the “TI P. aeruginosa HeLa” value [1] was 0.8, the “TI S. Typhimurium HeLa” value [1] was 0.5 and the “TI P. aeruginosa CEM” value (human T-lymphocyte (CEM)) was 8.7. For the same compound, the “TI S. Typhimurium CEM” value (human T-lymphocyte (CEM)) was 5.5, the “TI P. aeruginosa L1210” value (murine leukemia (L1210)) was 0.8 and the “TI S. Typhimurium L1210” value (murine leukemia (L1210)) was 0.5.
